Our source for the binding values is PMC11315935, “Multi-layered heterochromatin interaction as a switch for DIM2-mediated DNA methylation” (Nature Communications, 2024).

No constants are given. Whether binding was seen depends on the method and setting. Some entries that bind do so weakly or less than the wild type.

For assay [1], the target named is histone H3 peptide (residues 1-24) with H3K9me3, plus a C-terminal tryptophan (UniProt P68431). The experiment in a line: condition: 0.04–0.05 mM DIM2 titrated with 0.5 mM histone peptide; ITC; 0.04-0.05 mM protein titrated with 0.5 mM histone peptide at 7 °C, 20 mM Tris-HCl pH 7.5, 100 mM NaCl, 1 mM β-mercaptoethanol; single-site fit; apparent; both purified.
Assay [2] has the same target. The experiment in a line: ITC; 0.04-0.05 mM protein titrated with 0.5 mM histone peptide at 7 °C, 20 mM Tris-HCl pH 7.5, 100 mM NaCl, 1 mM β-mercaptoethanol; single-site fit; apparent; both purified. Background: Isothermal titration calorimetry measures the heat released or taken up as one component is titrated into another.

B1: DIM2 (residues 1-1242) W261A/W581A double mutant (domain or fragment, UniProt Q3Y3Z1 1-1242)
chain: MDSPDRSHGGMFIDVPAETMGFQEDYLDMFASVLSQGLAKEGDYAHHQPLPAGKEECLEPIAVATTITPSPDDPQLQLQLELEQQFQTESGLNGVDPAPAPESEDEADLPDGFSDESPDDDFVVQRSKHITVDLPVSTLINPRSTFQRIDENDNLVPPPQSTPERVAVEDLLKAAKAAGKNKEDYIEFELHDFNFYVNYAYHPQEMRPIQLVATKVLHDKYYFDGVLKYGNTKHYVTGMQVLELPVGNYGASLHSVKGQIAVRSKHNAKKEIYYLLKKPAFEYQRYYQPFLWIADLGKHVVDYCTRMVERKREVTLGCFKSDFIQWASKAHGKSKAFQNWRAQHPSDDFRTSVAANIGYIWKEINGVAGAKRAAGDQLFRELMIVKPGQYFRQEVPPGPVVTEGDRTVAATIVTPYIKECFGHMILGKVLRLAGEDAEKEKEVKLAKRLKIENKNATKADTKDDMKNDTATESLPTPLRSLPVQVLEATPIESDIVSIVSSDLPPSENNPPPLTNGSVKPKAKANPKPKPSTQPLHAAHVKYLSQELVNKIKVGDVISTPRDDSSNTDTKWKPTDTDDHRAFGLVQRVHTAKTKSSGRGLNSKSFDVIWFYRPEDTPCCAMKYKWRNELFLSNHCTCQEGHHARVKGNEVLAVHPVDWFGTPESNKGEFFVRQLYESEQRRWITLQKDHLTCYHNQPPKPPTAPYKPGDTVLATLSPSDKFSDPYEVVEYFTQGEKETAFVRLRKLLRRRKVDRQDAPANELVYTEDLVDVRAERIVGKCIMRCFRPDERVPSPYDRGGTGNMFFITHRQDHGRCVPLDTLPPTLRQGFNPLGNLGKPKLRGMDLYCGGGNFGRGLEEGGVVEMRWANDIWDKAIHTYMANTPDPNKTNPFLGSVDDLLRLALEGKFSDNVPRPGEVDFIAAGSPCPGFSLLTQDKKVLNQVKNQSLVASFASFVDFYRPKYGVLENVSGIVQTFVNRKQDVLSQLFCALVGMGYQAQLILGDAWAHGAPQSRERVFLYFAAPGLPLPDPPLPSHSHYRVKNRNIGFLCNGESYVQRSFIPTAFKFVSAGEGTADLPKIGDGKPDACVRFPDHRLASGITPYIRAQYACIPTHPYGMNFIKAWNNGNGVMSKSDRDLFPSEGKTRTSDASVGWKRLNPKTLFPTVTTTSNPSDARMGPGLHWDEDRPYTVQEMRRAQGYLDEEVLVGRTTDQWKLVGNSVSRHMALAIGLKFREAWLGTLYD
In the case of B1, in assay [1], the binding result is reported as “no binding”.

B2: DIM2 RFTS domain (residues 1-389) (domain or fragment, UniProt Q3Y3Z1 1-389)
chain: MDSPDRSHGGMFIDVPAETMGFQEDYLDMFASVLSQGLAKEGDYAHHQPLPAGKEECLEPIAVATTITPSPDDPQLQLQLELEQQFQTESGLNGVDPAPAPESEDEADLPDGFSDESPDDDFVVQRSKHITVDLPVSTLINPRSTFQRIDENDNLVPPPQSTPERVAVEDLLKAAKAAGKNKEDYIEFELHDFNFYVNYAYHPQEMRPIQLVATKVLHDKYYFDGVLKYGNTKHYVTGMQVLELPVGNYGASLHSVKGQIWVRSKHNAKKEIYYLLKKPAFEYQRYYQPFLWIADLGKHVVDYCTRMVERKREVTLGCFKSDFIQWASKAHGKSKAFQNWRAQHPSDDFRTSVAANIGYIWKEINGVAGAKRAAGDQLFRELMIVKPGQ
Regarding B2, the binding entry in assay [2] is “binds”.
